Laboratory results: PubChem BioAssay AID1259308 (NCATS, 2017)
Screen: 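Genes whose loss raises luciferase production in HEK293 cells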 (primary screen). System: human HEK293 embryonic kidney cells stably expressing firefly luciferase (HEK-CMV-Luc2-Hygro). Reagents: single siRNA against human genes, 0.8 pmol siRNA per well. Time to read-out: 72 h. Measured: 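Reporter luminescence and viable-cell signal on separate replicate plates, given as percent of non-targeting control and median/MAD z-scores, plus per-cell luciferase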. Reading the numbers: total luciferase, z-score and total luciferase, % of control: higher = more reporter protein produced; luciferase per cell, z-score: higher = more reporter output per viable cell; viable cells, % of control: higher = more viable cells. Active means: 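Active when the median/MAD z-score for overall luciferase is greater than 3; a gene was taken forward for validation with new siRNAs if at least two of its three siRNAs passed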. Calls: active = raised luciferase; inactive = no rise.
In all, the deposit lists about 59,000 reagents; shown is a random part of them. About 1,510 of them (2.6%) count as active. 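Calls use total luciferase alone and ignore viability, so some active siRNAs may act by altering cell number.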 Reagents against one gene are numbered here.

target	reagent	total luciferase, z-score	total luciferase, % of control	luciferase per cell, z-score	viable cells, % of control	outcome
IER5 (immediate early response 5)	1	-0.333	75.3	-0.426	94.1	inactive
IER5 (immediate early response 5)	2	0.549	92.8	0.173	99.1	inactive
IER5 (immediate early response 5)	3	0.141	84.7	1.49	64	inactive
KLHL34 (kelch like family member 34)	1	5.04	182	2.25	113	active
KLHL34 (kelch like family member 34)	2	-0.868	64.6	1.53	48.3	inactive
KLHL34 (kelch like family member 34)	3	0.108	84	-0.316	102	inactive
SNRPA (small nuclear ribonucleoprotein polypeptide A)	1	-0.14	79.1	-0.649	105	inactive
SNRPA (small nuclear ribonucleoprotein polypeptide A)	2	1.44	111	1.2	90	inactive
SNRPA (small nuclear ribonucleoprotein polypeptide A)	3	0.722	96.3	0.0276	107	inactive
TRIM11 (tripartite motif containing 11)	1	0.585	93.5	-0.195	110	inactive
TRIM11 (tripartite motif containing 11)	2	0.473	91.3	-0.0526	103	inactive
TRIM11 (tripartite motif containing 11)	3	-1.21	57.8	-1.41	93.7	inactive

Single entries from above:
Under “viable cells, % of control”, KLHL34 (kelch like family member 34) #3 is entered as 102
SNRPA (small nuclear ribonucleoprotein polypeptide A) #3, total luciferase, z-score = 0.722
Entry of IER5 (immediate early response 5) #3 under “total luciferase, % of control”: 84.7
TRIM11 (tripartite motif containing 11) #2, luciferase per cell, z-score = -0.0526

Additional reagents:
target	reagent	total luciferase, z-score	total luciferase, % of control	luciferase per cell, z-score	viable cells, % of control	outcome
PGF (placental growth factor)	1	0.593	93.7	0.00622	105	inactive
PGF (placental growth factor)	2	0.147	84.8	-0.233	101	inactive
PGF (placental growth factor)	3	1.81	118	1.74	83.3	inactive
RBMX (RNA binding motif protein X-linked)	1	0.853	98.8	1.54	73.7	inactive
RBMX (RNA binding motif protein X-linked)	2	-0.829	65.4	0.24	68.6	inactive
RBMX (RNA binding motif protein X-linked)	3	-0.437	73.2	-0.0983	83.9	inactive
LYSMD1 (LysM domain containing 1)	1	-0.557	70.8	-0.268	84.9	inactive
LYSMD1 (LysM domain containing 1)	2	0.237	86.6	0.154	92.9	inactive
LYSMD1 (LysM domain containing 1)	3	-0.424	73.5	0.609	69.9	inactive
CRABP1 (cellular retinoic acid binding protein 1)	1	-0.404	73.9	-0.625	97.3	inactive
CRABP1 (cellular retinoic acid binding protein 1)	2	2.26	127	1.91	85.6	inactive
CRABP1 (cellular retinoic acid binding protein 1)	3	-0.36	74.7	-0.613	98.1	inactive
